Results are given in words; binding and its absence hold for the method and conditions named. Binding seen in cells or lysates may run through a third protein. Some entries that bind do so weakly or less than the wild type. For some assays here: Sequences can lack the tags named with a protein.
B1: ORF34 (transfected) (protein, UniProt Q2HR98 1-327)
chain: MFALSSLVSEGDPEVTSRYVKGVQLALDLSENTPGQFKLIETPLNSFLLVSNVMPEVQPICSGLPALRPDFSNLHLPRLEKLQRVLGQGFGAAGEEIALDPSHVETHEKGQVFYNHYATEEWTWALTLNKDALLREAVDGLCDPGTWKGLLPDDPLPLLWLLFNGPASFCRADCCLYKQHCGYPGPVLLPGHMYAPKRDLLSFVNHALKYTKFLYGDFSGTWAAACRPPFATSRIQRVVSQMKIIDASDTYISHTCLLCHIYQQNSIIAGQGTHVGGILLLSGKGTQYITGNVQTQRCPTTGDYLIIPSYDIPAIITMIKENGLNQL
B2: FLAG-ORF34 (KSHV BAC16 HA-ORF24/FLAG-ORF34) (protein, UniProt Q2HR98 1-327)
chain: MFALSSLVSEGDPEVTSRYVKGVQLALDLSENTPGQFKLIETPLNSFLLVSNVMPEVQPICSGLPALRPDFSNLHLPRLEKLQRVLGQGFGAAGEEIALDPSHVETHEKGQVFYNHYATEEWTWALTLNKDALLREAVDGLCDPGTWKGLLPDDPLPLLWLLFNGPASFCRADCCLYKQHCGYPGPVLLPGHMYAPKRDLLSFVNHALKYTKFLYGDFSGTWAAACRPPFATSRIQRVVSQMKIIDASDTYISHTCLLCHIYQQNSIIAGQGTHVGGILLLSGKGTQYITGNVQTQRCPTTGDYLIIPSYDIPAIITMIKENGLNQL

Amino acid sequences for entries named in this document (tags omitted).
UniProt F5HFD2: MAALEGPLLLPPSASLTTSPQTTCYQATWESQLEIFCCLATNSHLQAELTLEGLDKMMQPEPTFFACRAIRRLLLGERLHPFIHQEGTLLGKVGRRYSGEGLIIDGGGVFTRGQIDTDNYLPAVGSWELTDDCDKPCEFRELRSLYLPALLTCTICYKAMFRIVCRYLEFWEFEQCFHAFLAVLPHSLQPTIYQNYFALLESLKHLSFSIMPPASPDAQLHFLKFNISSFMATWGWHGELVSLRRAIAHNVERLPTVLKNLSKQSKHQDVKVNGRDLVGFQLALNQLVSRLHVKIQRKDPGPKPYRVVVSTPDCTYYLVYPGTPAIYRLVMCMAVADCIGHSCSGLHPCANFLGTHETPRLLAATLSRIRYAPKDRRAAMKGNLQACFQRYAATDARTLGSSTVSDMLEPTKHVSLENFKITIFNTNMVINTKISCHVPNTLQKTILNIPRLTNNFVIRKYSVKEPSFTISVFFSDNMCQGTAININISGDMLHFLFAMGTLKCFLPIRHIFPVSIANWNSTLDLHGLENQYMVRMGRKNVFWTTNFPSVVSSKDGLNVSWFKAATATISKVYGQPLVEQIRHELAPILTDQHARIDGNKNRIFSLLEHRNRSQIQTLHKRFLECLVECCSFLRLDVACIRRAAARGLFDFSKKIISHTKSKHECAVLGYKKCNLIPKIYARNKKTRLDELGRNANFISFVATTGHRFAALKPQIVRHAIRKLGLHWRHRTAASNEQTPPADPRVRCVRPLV

Tests used:
[1] = biological target: ORF24-2xStrep (wild type) (Kaposi's sarcoma-associated herpesvirus (KSHV)) (UniProt F5HFD2); assay: co-IP
[2] = biological target: HA-ORF24 (wild type, KSHV BAC16 HA-ORF24/FLAG-ORF34) (Kaposi's sarcoma-associated herpesvirus (KSHV)) (UniProt F5HFD2); assay: co-IP; anti-HA magnetic beads on RIPA lysates (1-2 mg) of iSLK cells carrying HA-ORF24/FLAG-ORF34 KSHV BAC16 (wild type or ORF24 mutant), 48 h post reactivation; overnight in 150 mM NaCl, 50 mM Tris pH 7.4; washes with 0.05% NP-40; western blot for Rpb1 and FLAG-ORF34

Binder	binding [1]	binding [2]
B1	binds	
B2		binds

Reference: paper PMC12529657
